# Source: patent US20120012123A1, “COMPOSITIONS, ARTICLES AND METHODS FOR PREVENTING OR REDUCING TOBACCO-ASSOCIATED DAMAGE” (Technion Research & Development Foundation Ltd., priority 2007, published 2012)
# At least one structure is not confirmed: it was looked up by name or label, or the drawing left a doubt.
# Tested on: H1299 human lung cancer cells
# Assay: H1299 cells survival after cigarette smoke (CS) exposure with/without saliva, Trypan Blue exclusion test
# Type: cell-based
# Conditions: 5 mM DES, CS 120 minutes, absence of saliva
structure (smiles),measurement,value
"CC(=O)N(O)CCCCCNC(=O)CCC(=O)N(O)CCCCCNC(=O)CCC(=O)N(O)CCCCCN [DES, deferoxamine]",change of the lethal effect of CS (in words),No significant change
